# This is one part of the list. The data scatter; read single values as rough.
# The chains behind the UniProt entries cited, without tags or fusion partners. Where a name states a change or a piece, a line headed by the entry shows the natural chain unless it says otherwise.
# UniProt Q562E7: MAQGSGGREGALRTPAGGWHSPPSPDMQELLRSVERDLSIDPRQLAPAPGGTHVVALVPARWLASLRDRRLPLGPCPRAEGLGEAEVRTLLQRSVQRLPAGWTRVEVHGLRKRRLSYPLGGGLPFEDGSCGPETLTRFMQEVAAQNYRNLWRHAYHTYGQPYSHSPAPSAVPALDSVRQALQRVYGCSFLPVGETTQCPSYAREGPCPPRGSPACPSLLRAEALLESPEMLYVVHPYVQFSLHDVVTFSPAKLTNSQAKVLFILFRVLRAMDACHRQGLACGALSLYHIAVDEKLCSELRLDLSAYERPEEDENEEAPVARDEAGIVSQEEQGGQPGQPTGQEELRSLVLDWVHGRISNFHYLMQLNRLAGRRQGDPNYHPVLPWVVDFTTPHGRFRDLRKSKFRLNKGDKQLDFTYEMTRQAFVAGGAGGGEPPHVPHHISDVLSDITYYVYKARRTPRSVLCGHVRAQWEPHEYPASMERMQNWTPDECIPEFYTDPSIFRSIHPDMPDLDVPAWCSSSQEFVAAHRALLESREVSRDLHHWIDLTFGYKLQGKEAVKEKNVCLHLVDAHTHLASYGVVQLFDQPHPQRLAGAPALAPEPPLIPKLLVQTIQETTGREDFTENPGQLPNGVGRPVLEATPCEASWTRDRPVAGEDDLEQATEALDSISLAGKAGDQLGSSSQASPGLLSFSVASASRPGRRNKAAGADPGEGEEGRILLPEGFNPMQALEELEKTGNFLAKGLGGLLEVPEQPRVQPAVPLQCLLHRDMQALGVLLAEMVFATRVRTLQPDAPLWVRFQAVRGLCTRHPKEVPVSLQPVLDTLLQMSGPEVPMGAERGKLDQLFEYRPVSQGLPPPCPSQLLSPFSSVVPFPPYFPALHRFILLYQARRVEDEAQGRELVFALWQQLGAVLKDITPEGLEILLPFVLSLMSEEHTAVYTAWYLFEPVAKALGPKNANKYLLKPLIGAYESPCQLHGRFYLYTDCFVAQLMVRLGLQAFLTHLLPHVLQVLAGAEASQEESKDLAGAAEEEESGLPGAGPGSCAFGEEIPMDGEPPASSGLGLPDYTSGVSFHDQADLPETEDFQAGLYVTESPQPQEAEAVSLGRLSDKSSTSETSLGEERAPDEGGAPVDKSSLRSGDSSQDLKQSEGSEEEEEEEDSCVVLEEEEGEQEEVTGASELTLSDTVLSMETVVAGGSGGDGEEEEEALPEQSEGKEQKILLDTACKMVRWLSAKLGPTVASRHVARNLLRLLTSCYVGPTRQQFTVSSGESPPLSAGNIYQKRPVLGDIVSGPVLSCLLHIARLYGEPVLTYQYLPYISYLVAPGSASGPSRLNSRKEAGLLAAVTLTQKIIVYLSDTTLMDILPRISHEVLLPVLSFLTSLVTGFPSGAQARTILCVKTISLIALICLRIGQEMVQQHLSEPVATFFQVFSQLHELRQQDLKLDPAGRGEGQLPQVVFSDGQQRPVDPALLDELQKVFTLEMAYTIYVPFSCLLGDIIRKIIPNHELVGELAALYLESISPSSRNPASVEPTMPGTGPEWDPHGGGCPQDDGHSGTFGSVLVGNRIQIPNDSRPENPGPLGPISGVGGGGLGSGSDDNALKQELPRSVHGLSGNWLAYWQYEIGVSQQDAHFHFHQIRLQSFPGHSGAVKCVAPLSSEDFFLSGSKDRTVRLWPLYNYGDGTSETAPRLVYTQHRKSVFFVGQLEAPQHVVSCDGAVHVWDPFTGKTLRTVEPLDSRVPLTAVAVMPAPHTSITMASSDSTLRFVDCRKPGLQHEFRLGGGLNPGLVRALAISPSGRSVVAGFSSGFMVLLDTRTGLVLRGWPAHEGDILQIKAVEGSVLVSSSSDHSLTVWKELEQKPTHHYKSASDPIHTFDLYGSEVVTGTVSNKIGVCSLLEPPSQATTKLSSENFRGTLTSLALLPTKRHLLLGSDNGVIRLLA
# UniProt P57081: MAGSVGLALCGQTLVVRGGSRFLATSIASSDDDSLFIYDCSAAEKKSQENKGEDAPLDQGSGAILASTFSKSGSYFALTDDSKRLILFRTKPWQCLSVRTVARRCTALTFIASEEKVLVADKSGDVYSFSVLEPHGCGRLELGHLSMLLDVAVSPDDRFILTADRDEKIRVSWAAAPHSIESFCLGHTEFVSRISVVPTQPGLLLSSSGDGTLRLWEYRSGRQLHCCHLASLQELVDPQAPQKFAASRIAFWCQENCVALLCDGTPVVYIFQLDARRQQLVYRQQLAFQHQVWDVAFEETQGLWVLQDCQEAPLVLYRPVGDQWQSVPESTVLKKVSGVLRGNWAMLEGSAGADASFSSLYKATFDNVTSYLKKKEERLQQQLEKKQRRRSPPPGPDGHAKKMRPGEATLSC
# UniProt Q7Z5K2: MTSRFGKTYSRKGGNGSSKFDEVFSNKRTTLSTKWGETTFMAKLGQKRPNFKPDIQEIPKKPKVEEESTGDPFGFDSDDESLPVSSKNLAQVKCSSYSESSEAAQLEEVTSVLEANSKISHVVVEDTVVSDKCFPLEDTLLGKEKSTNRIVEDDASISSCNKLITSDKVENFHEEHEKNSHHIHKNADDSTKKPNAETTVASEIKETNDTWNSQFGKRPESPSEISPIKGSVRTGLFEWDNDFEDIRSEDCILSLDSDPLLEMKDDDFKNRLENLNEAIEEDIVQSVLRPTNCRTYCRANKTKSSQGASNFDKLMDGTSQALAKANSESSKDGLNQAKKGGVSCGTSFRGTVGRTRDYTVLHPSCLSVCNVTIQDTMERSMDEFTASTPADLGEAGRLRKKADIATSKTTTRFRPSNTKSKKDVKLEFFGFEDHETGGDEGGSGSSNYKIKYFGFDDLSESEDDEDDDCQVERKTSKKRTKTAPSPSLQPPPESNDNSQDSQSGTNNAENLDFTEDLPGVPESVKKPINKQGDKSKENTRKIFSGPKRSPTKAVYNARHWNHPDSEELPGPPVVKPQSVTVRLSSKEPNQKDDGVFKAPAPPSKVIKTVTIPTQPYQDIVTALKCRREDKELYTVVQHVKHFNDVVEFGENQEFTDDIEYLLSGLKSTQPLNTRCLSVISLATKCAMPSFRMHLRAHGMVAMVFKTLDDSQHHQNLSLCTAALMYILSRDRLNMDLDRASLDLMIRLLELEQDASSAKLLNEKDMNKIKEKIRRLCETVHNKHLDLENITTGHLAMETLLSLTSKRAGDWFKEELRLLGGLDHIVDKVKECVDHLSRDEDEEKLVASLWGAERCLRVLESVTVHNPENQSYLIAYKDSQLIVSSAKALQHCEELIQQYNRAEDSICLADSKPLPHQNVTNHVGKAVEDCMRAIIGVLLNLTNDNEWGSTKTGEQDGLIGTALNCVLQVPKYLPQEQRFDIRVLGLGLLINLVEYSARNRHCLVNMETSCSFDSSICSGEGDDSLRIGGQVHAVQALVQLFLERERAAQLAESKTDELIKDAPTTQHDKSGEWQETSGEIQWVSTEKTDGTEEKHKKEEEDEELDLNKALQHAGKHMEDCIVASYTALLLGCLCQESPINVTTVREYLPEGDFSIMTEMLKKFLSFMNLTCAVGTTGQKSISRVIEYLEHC
# UniProt O00308: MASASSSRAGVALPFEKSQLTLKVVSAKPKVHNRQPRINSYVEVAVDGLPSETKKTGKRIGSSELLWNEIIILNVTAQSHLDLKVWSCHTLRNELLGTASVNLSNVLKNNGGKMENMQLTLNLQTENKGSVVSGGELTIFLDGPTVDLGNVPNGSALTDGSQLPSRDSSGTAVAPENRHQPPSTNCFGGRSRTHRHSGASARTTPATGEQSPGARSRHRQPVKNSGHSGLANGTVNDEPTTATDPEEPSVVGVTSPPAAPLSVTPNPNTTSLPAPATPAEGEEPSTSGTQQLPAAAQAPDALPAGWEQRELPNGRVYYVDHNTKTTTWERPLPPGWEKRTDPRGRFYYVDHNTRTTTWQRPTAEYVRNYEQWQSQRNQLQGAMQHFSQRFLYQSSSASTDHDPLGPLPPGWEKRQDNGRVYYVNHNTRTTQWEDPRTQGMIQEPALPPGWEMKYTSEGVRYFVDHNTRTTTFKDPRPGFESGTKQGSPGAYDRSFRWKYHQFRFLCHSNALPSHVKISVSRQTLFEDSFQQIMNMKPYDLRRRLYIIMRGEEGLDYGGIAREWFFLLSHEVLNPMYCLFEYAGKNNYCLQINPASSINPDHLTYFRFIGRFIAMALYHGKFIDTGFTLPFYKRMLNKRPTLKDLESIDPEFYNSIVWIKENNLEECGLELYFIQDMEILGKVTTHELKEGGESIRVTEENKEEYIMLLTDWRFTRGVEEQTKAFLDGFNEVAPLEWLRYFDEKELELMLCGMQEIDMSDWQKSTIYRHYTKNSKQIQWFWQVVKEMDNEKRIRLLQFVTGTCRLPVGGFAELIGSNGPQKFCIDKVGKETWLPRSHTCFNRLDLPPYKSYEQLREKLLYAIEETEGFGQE
# UniProt P23025: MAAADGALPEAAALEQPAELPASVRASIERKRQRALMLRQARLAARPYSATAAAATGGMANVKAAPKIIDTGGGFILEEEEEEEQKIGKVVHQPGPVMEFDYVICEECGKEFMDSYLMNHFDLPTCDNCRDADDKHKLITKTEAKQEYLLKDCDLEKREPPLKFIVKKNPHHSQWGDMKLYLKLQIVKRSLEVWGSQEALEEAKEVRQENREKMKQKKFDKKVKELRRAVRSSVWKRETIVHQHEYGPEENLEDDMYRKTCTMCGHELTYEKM
# UniProt Q96DT7: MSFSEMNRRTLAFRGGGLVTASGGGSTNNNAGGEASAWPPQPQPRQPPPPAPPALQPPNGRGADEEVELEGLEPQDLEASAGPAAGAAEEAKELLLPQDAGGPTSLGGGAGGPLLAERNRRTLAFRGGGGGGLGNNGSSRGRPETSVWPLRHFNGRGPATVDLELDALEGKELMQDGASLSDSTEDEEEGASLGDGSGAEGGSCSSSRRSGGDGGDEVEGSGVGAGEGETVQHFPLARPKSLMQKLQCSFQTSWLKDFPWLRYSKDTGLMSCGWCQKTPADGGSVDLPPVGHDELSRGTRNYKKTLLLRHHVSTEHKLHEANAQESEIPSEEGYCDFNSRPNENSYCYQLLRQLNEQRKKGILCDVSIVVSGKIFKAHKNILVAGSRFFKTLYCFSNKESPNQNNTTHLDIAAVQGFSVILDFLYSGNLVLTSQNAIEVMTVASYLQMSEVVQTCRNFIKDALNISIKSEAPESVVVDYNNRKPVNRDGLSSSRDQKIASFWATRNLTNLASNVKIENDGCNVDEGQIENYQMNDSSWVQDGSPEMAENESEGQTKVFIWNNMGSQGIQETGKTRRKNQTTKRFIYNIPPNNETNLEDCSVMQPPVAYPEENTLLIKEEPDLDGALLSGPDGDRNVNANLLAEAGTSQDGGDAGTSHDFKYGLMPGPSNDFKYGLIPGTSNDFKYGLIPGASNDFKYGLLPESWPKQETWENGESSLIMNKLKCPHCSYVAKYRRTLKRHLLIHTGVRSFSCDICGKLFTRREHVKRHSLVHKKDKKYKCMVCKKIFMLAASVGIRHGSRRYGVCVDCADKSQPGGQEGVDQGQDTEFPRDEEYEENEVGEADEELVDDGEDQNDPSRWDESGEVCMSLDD
# Assays:
# [1] = compound: ClCC(=O)N[C@@H]1CCCc2ccccc12; assay: log2 mean competition ratio of IA-DTB cysteine labelling (DMSO/compound) (log2 ratio); higher = stronger cysteine engagement by compound; settings: treatment time: 4 h, cell line lysate: HEK293T
# Description: (§1)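 IA-DTB competitive cysteine chemoproteomics in HEK293T RIPA lysate. Lysates were treated with compound 29 or 30 at 50 or 200 µM for 4 h, then IA-DTB (500 µM, 1 h), trypsin-digested, NeutrAvidin-enriched and analysed by diaPASEF. Competition ratio = intensity DMSO / intensity compound (n=4 treated, n=64 DMSO); binding: mean log2 CR ≥ 1 and p ≤ 0.05 plus QC filters. Target is the cysteine site.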
# [2] = compound: ClCC(=O)N[C@H]1CCCc2ccccc12; assay: as above; settings: treatment time: 4 h, cell line lysate: HEK293T
# Description: as §1
Target,log2 mean competition ratio ([1]; 50 µM),log2 mean competition ratio ([1]; 200 µM),log2 mean competition ratio ([2]; 50 µM),log2 mean competition ratio ([2]; 200 µM)
WDR81 C1256 (UniProt Q562E7),0.505,0.0682,0.0763,-0.0159
WDR4 C137 (UniProt P57081),0.487,-0.158,0.246,-0.3
WAPL C160 (UniProt Q7Z5K2),-0.099,0.163,0.00869,0.253
ZC3H12A C223 (UniProt Q5D1E8),-0.329,-0.2,,0.112
WDR62 C707 (UniProt O43379),-0.0228,0.0743,-0.354,-0.16
WWP2 C186 (UniProt O00308),0.0109,0.164,0.266,0.281
ZC3H13 C42 (UniProt Q5T200),-0.0781,0.331,-0.411,0.219
YTHDF2 C433 (UniProt Q9Y5A9),-0.0833,-0.0663,-0.48,-0.0779
XRCC3 C310 (UniProt O43542),0.0376,0.276,0.318,0.205
XPA C153 (UniProt P23025),-0.0359,0.382,-0.259,0.297
YTHDC2 C460 (UniProt Q9H6S0),0.0658,-0.541,0.0243,-0.278
ZBED1 C76 (UniProt O96006),-0.116,0.155,-0.284,-0.19
ZC3H11A C636 (UniProt O75152),0.112,-0.147,0.468,-0.0341
XPO6 C1114 (UniProt Q96QU8),0.0153,0.0835,-0.352,-0.171
ZBTB10 C394 (UniProt Q96DT7),0.0798,-0.127,0.357,-0.127
VPS35L C20 (UniProt Q7Z3J2),0.423,-0.0616,,-0.107

# 2 entries from above in another layout:
Target | log2 mean competition ratio ([1]; 50 µM) | log2 mean competition ratio ([1]; 200 µM) | log2 mean competition ratio ([2]; 50 µM) | log2 mean competition ratio ([2]; 200 µM)
YTHDC2 C460 (UniProt Q9H6S0) | 0.0658 | -0.541 | 0.0243 | -0.278
ZBED1 C76 (UniProt O96006) | -0.116 | 0.155 | -0.284 | -0.19
